Data as given in PubChem BioAssay AID1259254 (NCATS, 2017)
Shown is an unselected part of about 59,000 reagents. Over the whole deposit, about 1,550 (2.6%) got an active call. 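G2 share is only a proxy for re-replication; each gene was hit by three separate siRNAs, and active genes were retested.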 The numbers tell different reagents against one gene apart. Further read-outs or replicates are left out here. Not given: the amount of reagent.

Test: 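Gene knock-downs that lead to re-replication, shown by excess G2 DNA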 (primary screen)
Cell system: human HCT116 colorectal cancer cells
Reagents: single siRNA against human genes
Time to read-out: 3 days
Detection: 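Imaged Hoechst DNA stain sorts each cell into a cycle phase by DNA amount; per plate, G2 fraction set to 0% for non-targeting and 100% for GMNN siRNA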
Scale: G2 robust z-score: higher = more G2 cells, more excess DNA replication
Call rule: 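An siRNA counts as active if its G2 robust z-score lies at least 5 MADs above the screen median; here such calls match roughly 38% of GMNN control or more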

G2 robust z-score, by gene and reagent
PRSS47P (GeneID 138652): #1 -0.212 inactive; #2 1.8 inactive; #3 1.47 inactive
ABCA12 (GeneID 26154): #1 -0.281 inactive; #2 -0.194 inactive; #3 0.17 inactive
C17orf78 (GeneID 284099): #1 1.13 inactive; #2 0.566 inactive; #3 -0.6 inactive
MEIOSIN (GeneID 388553): #1 0.213 inactive; #2 0.688 inactive; #3 -0.256 inactive
PRRC2A (GeneID 7916): #1 1.88 inactive; #2 0.694 inactive; #3 4.43 inactive
SYT15 (GeneID 83849): #1 1.6 inactive; #2 -0.781 inactive; #3 3.62 inactive
OR2AG1 (GeneID 144125): #1 1.88 inactive; #2 -0.703 inactive; #3 0.351 inactive
IMPA1 (GeneID 3612): #1 -0.643 inactive; #2 -0.288 inactive; #3 -0.858 inactive
SLC25A26 (GeneID 115286): #1 2.87 inactive; #2 -0.231 inactive; #3 0.363 inactive
SNX18 (GeneID 112574): #1 -0.538 inactive; #2 -0.398 inactive; #3 -0.547 inactive
REC114 (GeneID 283677): #1 0.494 inactive; #2 -0.473 inactive; #3 3.14 inactive
POLR3B (GeneID 55703): #1 0.443 inactive; #2 -0.486 inactive; #3 -0.878 inactive
ABCB7 (GeneID 22): #1 -1.44 inactive; #2 -0.184 inactive; #3 1.12 inactive
FH (GeneID 2271): #1 -1.05 inactive; #2 2.19 inactive; #3 0.862 inactive
ZNF704 (GeneID 619279): #1 0.989 inactive; #2 -0.418 inactive; #3 0.606 inactive
XAB2 (GeneID 56949): #1 3.46 inactive; #2 0.856 inactive; #3 -1.19 inactive
HES2 (GeneID 54626): #1 0.817 inactive; #2 0.131 inactive; #3 -0.51 inactive
ANP32CP (GeneID 23520): #1 -0.0406 inactive; #2 5.1 active; #3 0.152 inactive
TCEAL8 (GeneID 90843): #1 -0.63 inactive; #2 1.06 inactive; #3 1.92 inactive
RPRD1A (GeneID 55197): #1 -0.0446 inactive; #2 -0.282 inactive; #3 0.531 inactive
COX15 (GeneID 1355): #1 6.93 active; #2 -0.897 inactive; #3 -0.354 inactive
FRRS1 (GeneID 391059): #1 1.57 inactive; #2 -0.534 inactive; #3 -0.623 inactive
PARK7 (GeneID 11315): #1 -0.997 inactive; #2 -0.97 inactive; #3 -0.459 inactive
CSNK1E (GeneID 1454): #1 -0.541 inactive; #2 -0.371 inactive; #3 -0.0486 inactive
TUSC2 (GeneID 11334): #1 2.86 inactive; #2 1.41 inactive; #3 -0.177 inactive
PREX2 (GeneID 80243): #1 1.35 inactive; #2 0.462 inactive; #3 0.141 inactive
MACROD2 (GeneID 140733): #1 -0.167 inactive; #2 0.707 inactive; #3 -0.874 inactive
ARHGAP24 (GeneID 83478): #1 -0.908 inactive; #2 0.00962 inactive; #3 -0.65 inactive
HACE1 (GeneID 57531): #1 -0.234 inactive; #2 -0.666 inactive; #3 1.64 inactive

Records above marked active, once more:
G2 robust z-score, by gene and reagent
ANP32CP (GeneID 23520): #2 5.1 active
COX15 (GeneID 1355): #1 6.93 active
